Data reported in the supplement of paper PMC10849652.
This is one part of the list.

Protein sequences, listed by entry. Tags and fused reporters are not part of them. Lines headed by an entry give the natural chain unless they say otherwise; changes in a name come on top.
UniProt Q9H6T3, whole entry, looked up: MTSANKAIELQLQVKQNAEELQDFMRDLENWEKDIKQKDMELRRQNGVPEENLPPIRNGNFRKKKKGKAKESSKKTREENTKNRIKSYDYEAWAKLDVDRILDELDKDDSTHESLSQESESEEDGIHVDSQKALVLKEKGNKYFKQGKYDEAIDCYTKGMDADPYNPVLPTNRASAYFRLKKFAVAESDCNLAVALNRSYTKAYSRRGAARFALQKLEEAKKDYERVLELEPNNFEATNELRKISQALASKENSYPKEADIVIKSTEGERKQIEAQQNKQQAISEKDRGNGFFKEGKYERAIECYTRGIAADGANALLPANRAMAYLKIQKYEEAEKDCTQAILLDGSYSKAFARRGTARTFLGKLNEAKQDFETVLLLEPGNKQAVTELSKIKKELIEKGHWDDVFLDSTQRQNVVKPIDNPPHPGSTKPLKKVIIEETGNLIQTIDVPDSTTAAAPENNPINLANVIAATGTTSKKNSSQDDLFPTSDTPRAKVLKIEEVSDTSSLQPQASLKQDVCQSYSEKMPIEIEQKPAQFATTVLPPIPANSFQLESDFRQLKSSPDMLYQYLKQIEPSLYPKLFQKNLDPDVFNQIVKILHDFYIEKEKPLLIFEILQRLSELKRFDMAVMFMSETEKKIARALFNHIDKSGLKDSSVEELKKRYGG
UniProt Q86WX3: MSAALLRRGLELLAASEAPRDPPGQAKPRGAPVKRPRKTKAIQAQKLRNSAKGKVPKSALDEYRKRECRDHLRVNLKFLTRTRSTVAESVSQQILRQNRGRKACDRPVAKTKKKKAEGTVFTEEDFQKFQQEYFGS
UniProt P04844: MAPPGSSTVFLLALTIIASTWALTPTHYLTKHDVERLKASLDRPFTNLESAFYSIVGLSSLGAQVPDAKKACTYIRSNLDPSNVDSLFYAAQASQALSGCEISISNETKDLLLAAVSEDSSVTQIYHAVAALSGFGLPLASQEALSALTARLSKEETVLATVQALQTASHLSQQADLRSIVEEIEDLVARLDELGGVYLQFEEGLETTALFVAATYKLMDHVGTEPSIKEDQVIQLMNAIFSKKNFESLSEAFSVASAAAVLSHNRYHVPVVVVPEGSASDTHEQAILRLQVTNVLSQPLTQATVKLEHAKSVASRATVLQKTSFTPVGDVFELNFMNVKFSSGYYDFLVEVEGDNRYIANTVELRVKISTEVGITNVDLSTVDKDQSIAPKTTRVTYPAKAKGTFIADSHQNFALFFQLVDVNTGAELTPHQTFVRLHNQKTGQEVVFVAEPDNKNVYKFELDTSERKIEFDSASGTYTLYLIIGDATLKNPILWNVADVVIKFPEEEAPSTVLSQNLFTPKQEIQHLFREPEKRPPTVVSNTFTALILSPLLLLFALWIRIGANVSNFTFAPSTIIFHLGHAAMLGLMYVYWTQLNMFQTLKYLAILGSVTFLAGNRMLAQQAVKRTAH
UniProt O75116: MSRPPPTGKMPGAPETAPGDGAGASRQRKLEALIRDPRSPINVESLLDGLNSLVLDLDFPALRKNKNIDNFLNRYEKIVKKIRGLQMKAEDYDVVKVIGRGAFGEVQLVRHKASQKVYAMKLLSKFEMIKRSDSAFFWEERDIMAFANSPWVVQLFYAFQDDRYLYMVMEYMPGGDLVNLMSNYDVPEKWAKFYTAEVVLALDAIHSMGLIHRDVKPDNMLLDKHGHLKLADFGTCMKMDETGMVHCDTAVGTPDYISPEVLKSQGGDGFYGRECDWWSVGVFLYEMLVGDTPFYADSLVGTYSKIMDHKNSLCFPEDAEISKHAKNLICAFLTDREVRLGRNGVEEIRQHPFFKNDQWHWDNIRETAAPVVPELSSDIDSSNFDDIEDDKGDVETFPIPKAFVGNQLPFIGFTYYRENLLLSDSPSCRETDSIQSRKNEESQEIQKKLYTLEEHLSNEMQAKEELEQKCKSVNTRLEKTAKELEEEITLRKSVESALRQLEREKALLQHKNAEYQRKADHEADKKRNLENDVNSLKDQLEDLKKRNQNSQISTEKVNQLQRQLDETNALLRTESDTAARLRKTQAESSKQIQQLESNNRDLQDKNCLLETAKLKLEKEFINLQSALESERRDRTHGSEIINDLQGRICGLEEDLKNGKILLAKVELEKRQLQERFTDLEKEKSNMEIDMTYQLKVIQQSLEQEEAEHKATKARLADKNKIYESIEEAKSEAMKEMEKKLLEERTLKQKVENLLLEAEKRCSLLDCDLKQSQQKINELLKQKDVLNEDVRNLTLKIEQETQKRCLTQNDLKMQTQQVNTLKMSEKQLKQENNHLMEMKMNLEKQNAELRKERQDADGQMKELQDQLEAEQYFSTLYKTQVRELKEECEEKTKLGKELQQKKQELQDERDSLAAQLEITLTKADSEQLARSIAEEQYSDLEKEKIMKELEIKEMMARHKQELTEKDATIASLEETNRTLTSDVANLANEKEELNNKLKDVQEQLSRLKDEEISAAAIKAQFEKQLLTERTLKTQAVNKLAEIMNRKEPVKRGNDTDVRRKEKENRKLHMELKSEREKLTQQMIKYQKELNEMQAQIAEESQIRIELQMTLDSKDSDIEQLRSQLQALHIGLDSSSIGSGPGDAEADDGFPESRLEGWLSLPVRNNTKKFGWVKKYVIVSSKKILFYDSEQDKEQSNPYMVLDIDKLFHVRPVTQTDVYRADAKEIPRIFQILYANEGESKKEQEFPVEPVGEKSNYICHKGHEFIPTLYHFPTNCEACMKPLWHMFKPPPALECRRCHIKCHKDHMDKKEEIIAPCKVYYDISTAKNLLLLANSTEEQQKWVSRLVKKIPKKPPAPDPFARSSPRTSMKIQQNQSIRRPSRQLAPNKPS
UniProt Q8TA86: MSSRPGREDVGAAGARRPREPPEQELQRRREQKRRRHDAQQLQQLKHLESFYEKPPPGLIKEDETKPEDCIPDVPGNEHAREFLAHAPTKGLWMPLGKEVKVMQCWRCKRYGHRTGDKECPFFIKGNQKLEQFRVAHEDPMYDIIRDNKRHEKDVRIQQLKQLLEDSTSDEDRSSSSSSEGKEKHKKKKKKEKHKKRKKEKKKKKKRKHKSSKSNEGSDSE
UniProt P49247: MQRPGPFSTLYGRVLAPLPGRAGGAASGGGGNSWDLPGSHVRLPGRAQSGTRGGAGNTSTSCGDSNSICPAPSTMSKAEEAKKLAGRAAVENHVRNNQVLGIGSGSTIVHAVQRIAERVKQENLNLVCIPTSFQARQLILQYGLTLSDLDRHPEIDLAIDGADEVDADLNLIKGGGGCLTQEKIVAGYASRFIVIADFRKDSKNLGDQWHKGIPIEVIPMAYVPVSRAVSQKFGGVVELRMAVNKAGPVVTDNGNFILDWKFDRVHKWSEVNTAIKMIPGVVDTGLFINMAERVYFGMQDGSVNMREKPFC
UniProt P10301: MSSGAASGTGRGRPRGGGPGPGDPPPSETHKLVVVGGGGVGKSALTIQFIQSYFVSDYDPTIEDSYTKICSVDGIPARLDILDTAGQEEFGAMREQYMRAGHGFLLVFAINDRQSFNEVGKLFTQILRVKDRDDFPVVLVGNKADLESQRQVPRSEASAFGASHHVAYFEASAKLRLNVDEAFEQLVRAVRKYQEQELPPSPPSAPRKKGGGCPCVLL
UniProt Q9NQG5: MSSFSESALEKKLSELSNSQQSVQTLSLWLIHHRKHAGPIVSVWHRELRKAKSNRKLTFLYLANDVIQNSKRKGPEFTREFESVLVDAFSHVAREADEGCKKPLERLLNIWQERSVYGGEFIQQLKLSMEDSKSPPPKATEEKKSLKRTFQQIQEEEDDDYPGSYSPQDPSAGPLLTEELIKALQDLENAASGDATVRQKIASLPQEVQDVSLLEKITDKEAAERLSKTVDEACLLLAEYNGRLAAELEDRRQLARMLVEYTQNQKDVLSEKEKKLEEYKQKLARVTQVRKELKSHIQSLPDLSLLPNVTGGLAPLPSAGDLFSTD
UniProt P05386, whole entry, looked up: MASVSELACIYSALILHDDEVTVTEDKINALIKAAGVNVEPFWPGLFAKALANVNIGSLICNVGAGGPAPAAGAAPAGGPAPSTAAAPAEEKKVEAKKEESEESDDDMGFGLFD
UniProt P23921: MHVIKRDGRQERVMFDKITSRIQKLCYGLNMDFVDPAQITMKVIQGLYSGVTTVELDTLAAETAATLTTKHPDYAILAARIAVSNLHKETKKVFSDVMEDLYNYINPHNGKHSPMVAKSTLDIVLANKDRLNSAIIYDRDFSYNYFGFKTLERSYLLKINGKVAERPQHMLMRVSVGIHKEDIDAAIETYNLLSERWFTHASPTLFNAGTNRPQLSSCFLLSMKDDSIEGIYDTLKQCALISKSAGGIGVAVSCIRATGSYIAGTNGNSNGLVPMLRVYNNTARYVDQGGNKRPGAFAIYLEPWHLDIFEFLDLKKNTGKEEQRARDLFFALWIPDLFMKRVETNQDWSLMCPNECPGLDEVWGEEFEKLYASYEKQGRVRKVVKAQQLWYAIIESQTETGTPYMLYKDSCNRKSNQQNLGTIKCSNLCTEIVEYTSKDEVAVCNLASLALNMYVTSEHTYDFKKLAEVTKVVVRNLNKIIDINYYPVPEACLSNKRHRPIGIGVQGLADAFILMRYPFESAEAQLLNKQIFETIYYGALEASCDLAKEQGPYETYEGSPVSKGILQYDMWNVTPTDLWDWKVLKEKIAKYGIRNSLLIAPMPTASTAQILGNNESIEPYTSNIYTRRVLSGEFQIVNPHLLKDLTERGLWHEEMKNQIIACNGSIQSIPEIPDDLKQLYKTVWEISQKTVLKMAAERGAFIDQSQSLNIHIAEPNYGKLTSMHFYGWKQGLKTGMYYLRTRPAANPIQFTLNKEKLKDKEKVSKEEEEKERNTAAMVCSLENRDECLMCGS
UniProt Q9BUL9: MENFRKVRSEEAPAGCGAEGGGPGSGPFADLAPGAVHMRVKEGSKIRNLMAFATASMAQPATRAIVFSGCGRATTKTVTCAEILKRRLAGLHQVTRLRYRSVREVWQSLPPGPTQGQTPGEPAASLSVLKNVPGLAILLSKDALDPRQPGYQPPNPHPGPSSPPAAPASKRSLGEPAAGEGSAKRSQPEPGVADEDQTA
UniProt P35244: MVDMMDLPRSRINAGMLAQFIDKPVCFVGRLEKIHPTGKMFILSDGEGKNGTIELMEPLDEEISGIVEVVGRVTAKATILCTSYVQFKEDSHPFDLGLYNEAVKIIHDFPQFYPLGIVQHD

How the values were obtained:
Experiment in all cases: log2 fold change, soluble protein after heating vs DMSO (PISA); higher = thermal stabilisation; K562 cells, 10 uM, 30 min; active = over 0.2 and 3.5 SD of the protein, either way, in both replicates (recomputed)
erlotinib = compound: C#Cc1cccc(Nc2ncnc3cc(OCCOC)c(OCCOC)cc23)c1 [erlotinib]
Summary of the method: (§1)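 K562 cells at 2×10^6 cells/mL were exposed to 10 μM compound for 30 min, then aliquots were heated for 3 min across 48°C-58°C, pooled, and extracted in PBS containing 0.5% NP-40 at 4°C. The supernatant after 21,000xg for 90 min was taken as soluble protein and measured by TMTpro 16plex LC-MS/MS with channel sums equalised. Thermal stability is reported relative to control samples, with values from duplicates. Fold changes are given on a log2 scale.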

[1] = compound: C/C(=N\NC(=O)C1=CC(=CC=C1)S(=O)(=O)N2CCOCC2)/C3=C(C=CC(=C3)Cl)O
Summary of the method: as §1

[2] = compound: C1=CC(=C(C=C1Cl)C2=NC3=NC=CN=C3C(=N2)NC4=CC=NC=C4)F
Summary of the method: as §1

[3] = compound: C1=CC(=CC=C1C2=NC3=C(N2)C=C(C=C3)C(=O)N)OC4=CC=C(C=C4)Cl
Summary of the method: as §1

[4] = compound: C1=CC2=C(C=CC(=C2)/C=C\3/C(=O)NC(=NCC4=CC=CS4)S3)N=C1
Summary of the method: as §1

[5] = compound: C1=CC2=NC=CN=C2C=C1/C=C/3\C(=O)NC(=O)S3
Summary of the method: as §1

[6] = compound: C1=CC=C(C=C1)C2=NC(=C(N2)C3=CC=NC=C3)C4=CC(=C(C=C4)Cl)O
Summary of the method: as §1

[7] = compound: C1=CC=C2C(=C1)C3=NNC4=CC=CC(=C43)C2=O
Summary of the method: as §1

[8] = compound: C1CCN(C1)C(=O)NC2=CC=CC(=C2)NC3=NC=C(C(=N3)NCCC4=CN=CN4)Br
Summary of the method: as §1

[9] = compound: C1CN(CCC1(CC2=CC=C(C=C2)Cl)N)C3=NC=NC4=C3C=CN4
Summary of the method: as §1

Measured: log2 fold change

RPL14 (UniProt P50914)
inactive: erlotinib -0.436 | [1] -0.354 | [2] -1.15 | [3] 0.08 | [4] -0.18 | [5] -0.041 | [6] -0.028 | [7] 0.053 | [8] -0.1 | [9] -0.532

RPAP3 (UniProt Q9H6T3)
inactive: erlotinib 0.018 | [1] 0.099 | [2] -0.03 | [3] -0.002 | [4] 0.033 | [5] -0.026 | [6] -0.038 | [7] 0.008 | [8] -0.039 | [9] -0.122

RPSA (UniProt P08865)
inactive: erlotinib -0.039 | [1] -0.063 | [2] -0.045 | [3] 0.012 | [4] 0.009 | [5] -0.002 | [6] -0.046 | [7] -0.013 | [8] 0.084 | [9] -0.098

RPL32 (UniProt P62910)
inactive: erlotinib -0.445 | [1] -0.235 | [2] -0.687 | [3] 0.091 | [4] -0.188 | [5] -0.067 | [6] 0.104 | [7] 0.049 | [8] -0.016 | [9] -0.338

RPS15A (UniProt P62244)
inactive: erlotinib -0.174 | [1] -0.063 | [2] -0.538 | [3] 0.039 | [4] -0.115 | [5] -0.055 | [6] -0.055 | [7] 0.044 | [8] 0.075 | [9] -0.198

RPS19BP1 (UniProt Q86WX3)
inactive: erlotinib -0.001 | [1] -0.122 | [2] -0.213 | [3] 0.157 | [4] 0.004 | [5] 0.024 | [6] -0.133 | [7] -0.006 | [8] 0.09 | [9] -0.076

RPN2 (UniProt P04844)
inactive: erlotinib -0.019 | [1] -0.002 | [2] 0.009 | [3] -0.008 | [4] -0.015 | [5] 0.026 | [6] 0.065 | [7] 0.006 | [8] -0.019 | [9] -0.011

RPL26L1 (UniProt Q9UNX3)
inactive: erlotinib -0.201 | [1] -0.178 | [2] -0.626 | [3] 0.023 | [4] -0.129 | [5] -0.059 | [6] -0.051 | [7] 0.053 | [8] 0.11 | [9] -0.241

ROCK2 (UniProt O75116)
inactive: erlotinib 0.05 | [1] 0.02 | [2] 0.031 | [3] 0.003 | [4] 0.158 | [5] 0.126 | [6] -0.009 | [7] -0.071 | [8] 0.036 | [9] 0.099

RPL38 (UniProt P63173)
inactive: erlotinib 0.024 | [1] -0.05 | [2] -0.148 | [3] 0.026 | [4] -0.102 | [5] -0.025 | [6] -0.027 | [7] 0.026 | [8] 0.033 | [9] -0.106

RPL13 (UniProt P26373)
inactive: erlotinib -0.4 | [1] -0.434 | [2] -1.02 | [3] 0.065 | [4] -0.229 | [5] -0.007 | [6] -0.18 | [7] -0.012 | [8] 0.143 | [9] -0.315

RPL27A (UniProt P46776)
inactive: erlotinib -0.248 | [1] -0.352 | [2] -0.798 | [3] -0.03 | [4] -0.237 | [5] -0.011 | [6] -0.13 | [7] -0.041 | [8] 0.105 | [9] -0.214

RPS10 (UniProt P46783)
inactive: erlotinib -0.141 | [1] -0.13 | [2] -0.188 | [3] 0.009 | [4] -0.141 | [5] -0.017 | [6] -0.019 | [7] 0 | [8] 0.057 | [9] -0.098

RP9 (UniProt Q8TA86)
inactive: erlotinib -0.081 | [1] -0.067 | [2] -0.189 | [3] 0.162 | [4] 0.152 | [5] -0.045 | [6] -0.13 | [7] -0.102 | [8] -0.086 | [9] -0.048

RPS26 (UniProt P62854)
inactive: erlotinib -0.164 | [1] -0.314 | [2] -0.607 | [3] 0.089 | [4] -0.102 | [5] -0.054 | [6] 0.057 | [7] -0.083 | [8] 0.058 | [9] -0.336

RPL24 (UniProt P83731)
inactive: erlotinib -0.221 | [1] -0.182 | [2] -0.661 | [3] 0.023 | [4] -0.203 | [5] -0.039 | [6] -0.062 | [7] 0.032 | [8] 0.071 | [9] -0.172

Pulled one by one from the list above, two records:
RPS10 (UniProt P46783)
inactive: erlotinib -0.141 | [1] -0.13 | [2] -0.188 | [3] 0.009 | [4] -0.141 | [5] -0.017 | [6] -0.019 | [7] 0 | [8] 0.057 | [9] -0.098

RPL27A (UniProt P46776)
inactive: erlotinib -0.248 | [1] -0.352 | [2] -0.798 | [3] -0.03 | [4] -0.237 | [5] -0.011 | [6] -0.13 | [7] -0.041 | [8] 0.105 | [9] -0.214

The results go on:

RPL36AL (UniProt Q969Q0)
inactive: erlotinib -0.092 | [1] -0.165 | [2] -0.347 | [3] -0.012 | [4] -0.3 | [5] -0.018 | [6] 0.073 | [7] 0.018 | [8] 0.022 | [9] -0.21

RPIA (UniProt P49247)
inactive: erlotinib 0.03 | [1] 0.001 | [2] 0.032 | [3] 0.009 | [4] 0.004 | [5] 0.018 | [6] -0.023 | [7] -0.008 | [8] -0.01 | [9] 0.031

RPS14 (UniProt P62263)
inactive: erlotinib -0.166 | [1] -0.077 | [2] -0.124 | [3] 0.027 | [4] -0.149 | [5] -0.04 | [6] 0.039 | [7] 0.045 | [8] 0.031 | [9] -0.126

RRAS (UniProt P10301)
inactive: erlotinib 0.036 | [1] -0.011 | [2] 0.04 | [3] -0.022 | [4] 0.03 | [5] 0.023 | [6] -0.008 | [7] -0.046 | [8] -0.026 | [9] 0.025

RPL7A (UniProt P62424)
inactive: erlotinib -0.432 | [1] -0.391 | [2] -1.13 | [3] 0.056 | [4] -0.27 | [5] -0.016 | [6] -0.049 | [7] 0.019 | [8] 0.036 | [9] -0.325

RPRD1B (UniProt Q9NQG5)
inactive: erlotinib -0.065 | [1] 0.086 | [2] 0.036 | [3] 0.028 | [4] 0.063 | [5] 0.052 | [6] 0.042 | [7] -0.005 | [8] 0.009 | [9] -0.046

RPS9 (UniProt P46781)
inactive: erlotinib -0.099 | [1] -0.05 | [2] -0.384 | [3] 0.024 | [4] -0.069 | [5] -0.011 | [6] 0.047 | [7] 0.002 | [8] 0.102 | [9] -0.172

RPLP1 (UniProt P05386)
inactive: erlotinib -0.234 | [1] -0.335 | [2] -0.568 | [3] 0.114 | [4] -0.202 | [5] 0.076 | [6] -0.094 | [7] -0.083 | [8] 0.039 | [9] -0.392

RPS13 (UniProt P62277)
inactive: erlotinib -0.156 | [1] -0.17 | [2] -0.544 | [3] 0.088 | [4] -0.11 | [5] -0.053 | [6] -0.088 | [7] -0.015 | [8] 0.101 | [9] -0.184

RRM1 (UniProt P23921)
inactive: erlotinib -0.018 | [1] 0 | [2] 0.048 | [3] 0.019 | [4] -0.017 | [5] 0.004 | [6] 0.006 | [7] 0.003 | [8] 0.015 | [9] 0.062

RPP25 (UniProt Q9BUL9)
inactive: erlotinib -0.024 | [1] -0.055 | [2] -0.006 | [3] 0.024 | [4] 0.005 | [5] -0.079 | [6] 0.03 | [7] -0.044 | [8] -0.046 | [9] -0.037

RPS27 (UniProt P42677)
inactive: erlotinib -0.235 | [1] -0.049 | [2] -0.186 | [3] 0.182 | [4] 0.073 | [5] -0.042 | [6] -0.02 | [7] -0.053 | [8] 0.116 | [9] -0.229

RPA3 (UniProt P35244)
inactive: erlotinib -0.007 | [1] 0.156 | [2] 0.084 | [3] 0.008 | [4] -0.058 | [5] -0.007 | [6] 0.115 | [7] 0.032 | [8] -0.128 | [9] -0.027
